According to patent US4361553A, “Therapeutic uses of dynorphin” (Regents of the University of California, priority 1981, dated 1982):
Where two headings read alike, the source gives them in different places.

Test system: naive mice
Experiment: Tail-flick analgesia, morphine s.c. with or without dynorphin-(1-13) i.c.v., naive group (Example III)
Assay type: in vivo
Conditions: Mus musculus, sc
Description: Male simonesen ICR mice (Gilroy, CA) weighing between 20-25 g were housed for at least one day prior to experimentation, and used within 5 days. Each mouse was used only once.
Analgesia was measured by the tail-flick method of D'Amour and Smith, J.Pharmac.Exp.Ther., 72, pp. 74-79 (1941), incorporated herein by reference, as modified by Tulunay and Takemori, J.Pharmac.Exp.Ther., 190, pp. 395-400 (1974), incorporated herein by reference. […] Nonresponding animals were removed from the heat stimulus when reaction times exceeded 10 sec. to avoid the tail damage.
Drugs were injected 30 min prior to testing, unless otherwise indicated.
The animals were separated into two groups.
The ED50 values, their 95% confidence limits and significance of the potency ratio between two ED50 values were determined by the method of Litchfield and Wilcoxon, J.Pharmacol.Exp.Ther, 96:99-113 (1949), incorporated herein by reference.

Question: How did the ED50 (read-out: ED50 of morphine, morphine s.c. alone, naive mice) turn out when `CN1CC[C@]23c4c5ccc(O)c4O[C@H]2[C@@H](O)C=C[C@H]3[C@H]1C5.O=S(=O)(O)O` [Morphine, morphine sulfate] was run?
Answer: ~4.9 mg/kg

Question: And the ED50 (read-out: ED50 of morphine, morphine s.c. in the presence of 10 g dynorphin-(1-13) (unit as printed), naive mice)?
Answer: ~8.4 mg/kg

Question: And the ED50 (read-out: ED50 of morphine, morphine s.c. in the presence of 20 g dynorphin-(1-13) (unit as printed), naive mice)?
Answer: ~14.5 mg/kg
